Reference: patent US20170137817
For at least one entry, the source does not settle the construct or the ends of the probe. For some assays here: Results from cells or extracts need not show a direct contact. For some assays here: Where a protein sequence is shown, tags need not be part of it.

Legend:
[1] = system: STAT5 (endogenous, activated, KU-812 cells) (Homo sapiens); experiment: pull-down; settings: streptavidin bead pull-down and Western blot; 200 pmol aptamer, 200 ug extract, Tris pH 7.5, NaCl, EDTA, glycerol, NP40, on ice; protein in an extract; label: biotin; single-stranded DNA; variant of Apta1
[2] = target: T1, STAT5B 1*6 (oncogenic form) (UniProt P42232); experiment: pull-down; settings: streptavidin bead pull-down and Western blot; 200 pmol aptamer, 200 ug extract, Tris pH 7.5, NaCl, EDTA, glycerol, NP40, on ice; protein in an extract; label: biotin; single-stranded DNA; variant of Apta1
T1 sequence (looked up, limits assumed): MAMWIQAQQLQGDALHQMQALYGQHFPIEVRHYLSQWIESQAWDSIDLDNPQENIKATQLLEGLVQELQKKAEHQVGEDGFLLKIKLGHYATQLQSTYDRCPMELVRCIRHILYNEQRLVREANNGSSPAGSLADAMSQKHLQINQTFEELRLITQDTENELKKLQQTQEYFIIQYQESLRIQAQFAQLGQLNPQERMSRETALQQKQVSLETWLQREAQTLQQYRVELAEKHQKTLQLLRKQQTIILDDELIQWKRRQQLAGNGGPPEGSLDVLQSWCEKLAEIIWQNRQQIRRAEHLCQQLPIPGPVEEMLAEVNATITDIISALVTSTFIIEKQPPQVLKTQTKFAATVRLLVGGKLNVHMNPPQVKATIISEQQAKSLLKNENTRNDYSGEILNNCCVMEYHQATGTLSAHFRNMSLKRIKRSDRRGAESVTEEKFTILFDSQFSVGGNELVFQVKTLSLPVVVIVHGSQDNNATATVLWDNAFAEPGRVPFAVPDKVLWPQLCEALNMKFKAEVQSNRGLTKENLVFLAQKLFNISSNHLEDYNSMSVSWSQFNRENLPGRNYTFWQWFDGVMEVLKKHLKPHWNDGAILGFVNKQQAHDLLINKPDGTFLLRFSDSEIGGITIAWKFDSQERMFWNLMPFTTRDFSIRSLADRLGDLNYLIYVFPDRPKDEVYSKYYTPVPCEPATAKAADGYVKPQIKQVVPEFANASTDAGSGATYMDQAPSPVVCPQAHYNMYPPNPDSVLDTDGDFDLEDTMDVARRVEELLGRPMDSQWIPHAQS

[3] = target: T2, STAT5B (recombinant) (Mus musculus) (UniProt P42232); experiment: SELEX; settings: selected on His-tag Dynabeads-captured STAT5B, overnight 4 C; purified recombinant protein; single-stranded DNA
T2 sequence: T1 sequence (looked up, limits assumed)

Row | Sequence | binding result [1] | binding result [2] | selection result [3]
1 | ATACCAGCTTATTCAATTTATCCGCAACCCACCTAGCGCCCTACCTCGTGGGAATCCAAACCCAACCAGTCCACCCACAGATAGTAAGTGCAATCT [Apta1 biotinylated] | binds | binds | –
2 | ATACCAGCTTATTCAATTGTGTCTGTTCACTCGTCGATACACAGCATACTCAACCCAGGCCCCTGACTGCTAATCCCCAGATAGTAAGTGCAATCT [Apta2] | – | – | selected
3 | ATACCAGCTTATTCAATTTATCCGCAACCCACCTAGCGCCCTACCTCGTGGGAATCCAAACCCAACCAGTCCACCCACAGATAGTAAGTGCAATCT [Apta1] | – | – | selected
4 | ATACCAGCTTATTCAATTGTGTCTGTTCACTCGTCGATACACAACATACTCAACCCAGGCCCCTGACTGCTAATCCCCAGATAGTAAGTGCAATCT [Apta3] | – | – | selected
